The source of these data is PMC6733937.

Chains of the proteins cited; added tags and fusions are not shown.
UniProt Q13950: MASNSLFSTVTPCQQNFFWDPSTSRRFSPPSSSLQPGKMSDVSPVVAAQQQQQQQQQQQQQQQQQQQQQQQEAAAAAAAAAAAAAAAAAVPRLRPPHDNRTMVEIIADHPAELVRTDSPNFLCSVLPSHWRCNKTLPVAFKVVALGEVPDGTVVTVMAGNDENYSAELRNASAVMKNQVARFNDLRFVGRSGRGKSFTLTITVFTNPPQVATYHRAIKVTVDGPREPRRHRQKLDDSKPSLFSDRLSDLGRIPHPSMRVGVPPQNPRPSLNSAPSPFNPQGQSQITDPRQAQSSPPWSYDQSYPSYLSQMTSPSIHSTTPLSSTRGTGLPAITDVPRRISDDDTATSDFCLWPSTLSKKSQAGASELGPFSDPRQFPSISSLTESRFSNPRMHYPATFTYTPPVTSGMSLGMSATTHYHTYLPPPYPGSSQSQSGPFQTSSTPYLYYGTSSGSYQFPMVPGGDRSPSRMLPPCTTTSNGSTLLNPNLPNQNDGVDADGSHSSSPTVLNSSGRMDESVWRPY

No constants are given. Whether binding was seen depends on the method and setting. In cells and extracts the contact can be indirect. Some results given as binding are weak or reduced against the parent protein; the word gives no strength.

The assay deals with Runt-related gene 2 (RUNX2) (human (in human BMSCs)) (UniProt Q13950). The assay is described as follows: co-IP; BMSC lysate; immunoprecipitation kit (Abcam); supernatant incubated with antibodies overnight at 4 °C, Protein A/G Sepharose beads 1 h at 4 °C, washed 3 times; western blotting; which protein was precipitated is not told. (Immunoblotting shows a protein as a band on a membrane.)

B1: LIM and cysteine-rich domains-1 (LMCD1) (protein, UniProt Q9NZU5 1-365)
chain: MAKVAKDLNPGVKKMSLGQLQSARGVACLGCKGTCSGFEPHSWRKICKSCKCSQEDHCLTSDLEDDRKIGRLLMDSKYSTLTARVKGGDGIRIYKRNRMIMTNPIATGKDPTFDTITYEWAPPGVTQKLGLQYMELIPKEKQPVTGTEGAFYRRRQLMHQLPIYDQDPSRCRGLLENELKLMEEFVKQYKSEALGVGEVALPGQGGLPKEEGKQQEKPEGAETTAATTNGSLSDPSKEVEYVCELCKGAAPPDSPVVYSDRAGYNKQWHPTCFVCAKCSEPLVDLIYFWKDGAPWCGRHYCESLRPRCSGCDEIIFAEDYQRVEDLAWHRKHFVCEGCEQLLSGRAYIVTKGQLLCPTCSKSKRS
As to B1, the binding entry was “binds”.
